Among the data in paper PMC10398660 are binding values, retold here.

Protein sequences, listed by entry. Tags and fused reporters are not part of them.
UniProt P46379: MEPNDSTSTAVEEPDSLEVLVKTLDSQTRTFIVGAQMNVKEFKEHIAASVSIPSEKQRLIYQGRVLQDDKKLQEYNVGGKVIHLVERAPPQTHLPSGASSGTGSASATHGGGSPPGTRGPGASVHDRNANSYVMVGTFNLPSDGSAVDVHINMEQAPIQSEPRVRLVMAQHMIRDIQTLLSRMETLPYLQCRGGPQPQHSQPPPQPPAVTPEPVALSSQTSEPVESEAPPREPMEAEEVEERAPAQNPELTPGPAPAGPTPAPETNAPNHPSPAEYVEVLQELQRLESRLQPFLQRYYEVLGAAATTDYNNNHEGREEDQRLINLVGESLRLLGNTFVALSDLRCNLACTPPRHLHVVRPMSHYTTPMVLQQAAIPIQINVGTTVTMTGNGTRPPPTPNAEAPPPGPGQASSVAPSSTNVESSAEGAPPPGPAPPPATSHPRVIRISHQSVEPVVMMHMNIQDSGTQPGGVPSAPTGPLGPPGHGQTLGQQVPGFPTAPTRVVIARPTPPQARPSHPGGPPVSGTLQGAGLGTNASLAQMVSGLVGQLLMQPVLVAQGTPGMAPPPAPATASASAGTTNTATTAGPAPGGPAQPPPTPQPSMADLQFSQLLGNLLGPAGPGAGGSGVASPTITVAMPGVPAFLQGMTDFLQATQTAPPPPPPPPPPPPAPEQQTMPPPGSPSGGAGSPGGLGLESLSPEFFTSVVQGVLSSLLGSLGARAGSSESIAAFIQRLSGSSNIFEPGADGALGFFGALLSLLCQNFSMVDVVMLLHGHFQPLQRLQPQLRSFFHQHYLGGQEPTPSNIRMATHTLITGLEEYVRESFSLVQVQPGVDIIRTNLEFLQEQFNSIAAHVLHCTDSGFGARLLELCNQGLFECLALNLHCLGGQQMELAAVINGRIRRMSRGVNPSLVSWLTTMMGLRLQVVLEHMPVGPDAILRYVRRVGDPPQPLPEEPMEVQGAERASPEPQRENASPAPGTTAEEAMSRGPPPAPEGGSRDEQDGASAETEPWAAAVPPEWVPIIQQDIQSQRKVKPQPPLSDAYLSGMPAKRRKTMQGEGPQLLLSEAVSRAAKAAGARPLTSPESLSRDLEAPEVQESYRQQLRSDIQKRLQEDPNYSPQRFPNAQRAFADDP
UniProt Q7L5D6: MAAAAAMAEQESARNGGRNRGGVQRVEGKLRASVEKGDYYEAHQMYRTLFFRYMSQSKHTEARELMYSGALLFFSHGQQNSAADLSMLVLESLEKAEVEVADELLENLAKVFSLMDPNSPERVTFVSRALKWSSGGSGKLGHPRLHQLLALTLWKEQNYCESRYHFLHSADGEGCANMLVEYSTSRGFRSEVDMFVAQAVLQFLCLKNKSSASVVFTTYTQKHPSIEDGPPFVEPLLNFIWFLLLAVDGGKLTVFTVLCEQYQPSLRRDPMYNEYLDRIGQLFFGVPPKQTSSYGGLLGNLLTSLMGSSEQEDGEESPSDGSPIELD
UniProt O43765: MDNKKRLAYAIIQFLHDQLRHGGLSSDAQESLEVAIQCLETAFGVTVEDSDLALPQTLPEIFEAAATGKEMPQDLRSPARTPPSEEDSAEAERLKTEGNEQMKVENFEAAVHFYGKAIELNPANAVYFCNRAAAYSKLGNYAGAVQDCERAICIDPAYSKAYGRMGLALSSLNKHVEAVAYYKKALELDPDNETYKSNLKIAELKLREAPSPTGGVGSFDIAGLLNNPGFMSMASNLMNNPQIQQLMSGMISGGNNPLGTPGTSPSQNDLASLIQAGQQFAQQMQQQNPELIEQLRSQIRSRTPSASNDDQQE
UniProt O95071: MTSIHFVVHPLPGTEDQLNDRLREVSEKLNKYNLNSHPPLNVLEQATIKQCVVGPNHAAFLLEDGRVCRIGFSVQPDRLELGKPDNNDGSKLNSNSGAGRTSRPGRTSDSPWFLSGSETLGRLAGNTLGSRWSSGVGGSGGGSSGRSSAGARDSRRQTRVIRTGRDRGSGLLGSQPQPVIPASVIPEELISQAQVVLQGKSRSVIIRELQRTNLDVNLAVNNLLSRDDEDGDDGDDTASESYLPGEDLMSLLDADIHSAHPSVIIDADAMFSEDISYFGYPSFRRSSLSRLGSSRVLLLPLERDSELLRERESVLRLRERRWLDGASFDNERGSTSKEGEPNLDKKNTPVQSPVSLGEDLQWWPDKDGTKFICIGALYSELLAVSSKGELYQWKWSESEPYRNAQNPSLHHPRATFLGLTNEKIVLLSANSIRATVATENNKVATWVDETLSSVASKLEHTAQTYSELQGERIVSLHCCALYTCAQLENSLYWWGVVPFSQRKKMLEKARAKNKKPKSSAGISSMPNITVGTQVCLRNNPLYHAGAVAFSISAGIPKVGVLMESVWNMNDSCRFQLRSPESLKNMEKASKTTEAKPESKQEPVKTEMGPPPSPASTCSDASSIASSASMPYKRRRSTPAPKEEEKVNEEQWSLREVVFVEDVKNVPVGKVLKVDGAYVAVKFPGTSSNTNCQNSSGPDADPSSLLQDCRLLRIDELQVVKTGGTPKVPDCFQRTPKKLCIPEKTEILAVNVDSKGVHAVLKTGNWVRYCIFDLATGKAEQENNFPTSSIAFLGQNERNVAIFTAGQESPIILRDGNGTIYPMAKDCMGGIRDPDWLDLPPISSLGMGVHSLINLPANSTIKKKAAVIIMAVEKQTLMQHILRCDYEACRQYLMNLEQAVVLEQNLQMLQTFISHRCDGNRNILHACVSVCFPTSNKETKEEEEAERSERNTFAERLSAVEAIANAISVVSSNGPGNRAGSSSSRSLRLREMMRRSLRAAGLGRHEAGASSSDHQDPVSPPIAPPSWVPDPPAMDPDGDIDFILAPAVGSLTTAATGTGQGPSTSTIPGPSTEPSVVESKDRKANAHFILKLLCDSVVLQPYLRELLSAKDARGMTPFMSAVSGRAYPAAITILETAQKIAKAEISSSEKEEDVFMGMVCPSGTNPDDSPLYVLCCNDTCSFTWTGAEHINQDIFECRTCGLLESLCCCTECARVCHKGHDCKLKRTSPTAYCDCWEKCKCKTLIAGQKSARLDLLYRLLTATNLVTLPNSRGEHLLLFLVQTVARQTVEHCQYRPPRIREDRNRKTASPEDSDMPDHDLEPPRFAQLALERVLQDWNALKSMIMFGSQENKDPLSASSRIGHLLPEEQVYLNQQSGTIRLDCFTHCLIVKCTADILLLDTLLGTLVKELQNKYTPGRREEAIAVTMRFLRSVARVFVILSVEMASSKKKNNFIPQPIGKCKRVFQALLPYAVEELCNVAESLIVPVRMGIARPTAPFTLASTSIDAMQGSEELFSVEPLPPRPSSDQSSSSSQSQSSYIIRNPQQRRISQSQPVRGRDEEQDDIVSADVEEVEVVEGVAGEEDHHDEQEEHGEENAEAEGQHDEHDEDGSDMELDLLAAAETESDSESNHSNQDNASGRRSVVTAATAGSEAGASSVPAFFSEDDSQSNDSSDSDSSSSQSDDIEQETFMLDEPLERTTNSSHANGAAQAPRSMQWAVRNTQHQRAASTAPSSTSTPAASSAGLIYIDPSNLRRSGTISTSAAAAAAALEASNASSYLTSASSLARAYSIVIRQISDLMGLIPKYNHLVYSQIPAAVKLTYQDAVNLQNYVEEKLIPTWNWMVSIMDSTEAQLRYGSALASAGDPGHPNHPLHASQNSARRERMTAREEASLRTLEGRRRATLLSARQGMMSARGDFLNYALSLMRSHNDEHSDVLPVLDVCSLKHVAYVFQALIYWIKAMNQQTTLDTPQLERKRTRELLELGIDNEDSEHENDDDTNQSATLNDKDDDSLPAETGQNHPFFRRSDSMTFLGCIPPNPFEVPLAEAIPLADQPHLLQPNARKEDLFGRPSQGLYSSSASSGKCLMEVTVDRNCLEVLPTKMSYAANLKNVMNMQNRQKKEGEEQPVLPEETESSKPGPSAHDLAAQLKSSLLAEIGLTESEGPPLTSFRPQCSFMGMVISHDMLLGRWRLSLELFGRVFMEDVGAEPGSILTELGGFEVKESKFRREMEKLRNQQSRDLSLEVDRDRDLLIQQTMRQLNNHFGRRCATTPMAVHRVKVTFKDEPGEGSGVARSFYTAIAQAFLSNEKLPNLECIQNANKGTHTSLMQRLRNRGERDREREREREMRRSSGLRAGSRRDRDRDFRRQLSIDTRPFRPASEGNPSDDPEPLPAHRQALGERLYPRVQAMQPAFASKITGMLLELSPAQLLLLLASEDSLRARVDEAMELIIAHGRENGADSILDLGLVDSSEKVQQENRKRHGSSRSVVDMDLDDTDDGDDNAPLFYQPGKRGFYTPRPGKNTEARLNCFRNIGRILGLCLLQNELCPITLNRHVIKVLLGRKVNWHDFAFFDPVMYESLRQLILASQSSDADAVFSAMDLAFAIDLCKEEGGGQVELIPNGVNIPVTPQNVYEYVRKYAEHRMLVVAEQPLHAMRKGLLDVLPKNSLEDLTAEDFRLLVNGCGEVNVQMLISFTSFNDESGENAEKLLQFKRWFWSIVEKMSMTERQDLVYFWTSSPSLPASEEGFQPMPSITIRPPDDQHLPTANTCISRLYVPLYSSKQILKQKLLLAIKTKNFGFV

Changes are numbered by the printed parent chain. No constants are given. Whether binding was seen depends on the method and setting. In cells and extracts the contact can be indirect. Some entries that bind do so weakly or less than the wild type. Sequences can lack the tags named with a protein.

Experiment [1] has as its target T1, C9orf72-HA (C-terminal HA-tagged C9orf72) (UniProt Q96LT7).
T1 sequence: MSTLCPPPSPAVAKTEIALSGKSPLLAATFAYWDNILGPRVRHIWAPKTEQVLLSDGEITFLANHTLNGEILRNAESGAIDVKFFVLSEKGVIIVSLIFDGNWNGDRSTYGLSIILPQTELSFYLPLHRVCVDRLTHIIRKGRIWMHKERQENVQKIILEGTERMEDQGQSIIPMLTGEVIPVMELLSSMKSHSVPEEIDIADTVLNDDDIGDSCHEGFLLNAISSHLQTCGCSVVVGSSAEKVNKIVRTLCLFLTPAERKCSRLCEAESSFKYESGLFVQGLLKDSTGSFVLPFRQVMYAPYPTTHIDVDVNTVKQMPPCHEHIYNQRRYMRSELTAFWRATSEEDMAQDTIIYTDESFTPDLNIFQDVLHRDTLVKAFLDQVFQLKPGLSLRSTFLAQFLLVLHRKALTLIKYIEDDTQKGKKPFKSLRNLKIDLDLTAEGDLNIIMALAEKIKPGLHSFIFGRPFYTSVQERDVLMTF
The experiment is described as follows: co-IP; HA-IP under mild conditions (MCLB buffer) from Btz-treated C9orf72-HA SMCR8 KO cells; beads treated or not with the catalytic domain of USP2 (500 nM, 1 h, 30°C); immunoblot. (A western blot detects proteins with antibodies after separation by electrophoresis.)

Experiment [2] deals with T1, C9orf72-HA (C-terminal HA-tagged C9orf72). The experiment is described as follows: co-IP; HA-IP (anti-HA beads, overnight, 4°C, MCLB buffer) from C9orf72-HA expressing parental and SMCR8 KO 293T cells treated with DMSO or Btz; immunoblot.
Another experiment has as its target T2, GFP-SMCR8 (UniProt Q8TEV9).
T2 sequence: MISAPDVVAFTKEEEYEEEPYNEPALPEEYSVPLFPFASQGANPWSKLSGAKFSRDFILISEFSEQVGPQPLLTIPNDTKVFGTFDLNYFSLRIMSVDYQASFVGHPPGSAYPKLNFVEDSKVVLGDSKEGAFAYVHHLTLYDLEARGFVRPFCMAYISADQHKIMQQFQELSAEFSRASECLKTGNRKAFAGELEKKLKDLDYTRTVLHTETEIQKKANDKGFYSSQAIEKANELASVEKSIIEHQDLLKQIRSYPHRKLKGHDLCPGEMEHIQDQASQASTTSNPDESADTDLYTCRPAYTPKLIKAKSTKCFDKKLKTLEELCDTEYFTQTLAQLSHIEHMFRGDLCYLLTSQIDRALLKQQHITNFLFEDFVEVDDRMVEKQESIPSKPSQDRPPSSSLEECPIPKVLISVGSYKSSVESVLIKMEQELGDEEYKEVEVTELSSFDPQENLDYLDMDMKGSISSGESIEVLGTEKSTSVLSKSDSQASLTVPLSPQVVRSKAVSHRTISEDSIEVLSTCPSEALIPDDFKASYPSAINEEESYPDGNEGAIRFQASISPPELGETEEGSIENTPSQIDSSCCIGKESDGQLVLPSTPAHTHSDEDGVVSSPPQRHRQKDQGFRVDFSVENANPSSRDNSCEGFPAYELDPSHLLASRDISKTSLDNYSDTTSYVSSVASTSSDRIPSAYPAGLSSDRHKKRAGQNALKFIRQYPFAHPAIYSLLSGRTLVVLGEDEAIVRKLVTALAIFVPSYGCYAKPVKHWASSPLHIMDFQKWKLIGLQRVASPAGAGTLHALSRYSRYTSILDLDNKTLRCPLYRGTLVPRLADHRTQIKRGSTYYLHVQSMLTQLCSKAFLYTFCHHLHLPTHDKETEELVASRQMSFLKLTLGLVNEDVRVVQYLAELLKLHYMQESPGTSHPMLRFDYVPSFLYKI
The experiment is described as follows: pull-down; Streptavidin agarose loaded with biotinylated GFP VHH nanobodies, incubated with 293T lysates in MCLB buffer overnight at 4°C; cells treated with DMSO or Btz; immunoblot.

The target of experiment [3] is T3, GFP-C9orf72 mutant K156R, K388R, K414R, K422R (KR4) (UniProt Q96LT7).
T3 sequence: T1 sequence with K156R, K388R, K414R, K422R
The description is as above.

Experiment [4] concerns the target T4, GFP-C9orf72 wild-type (WT) (UniProt Q96LT7).
T4 sequence: T1 sequence
Described as above.

In the case of “BAG6, endogenous (from UniProt P46379 1-1132)”, the binding result (in experiment [1]; in experiment [2]; with GFP-SMCR8; in experiment [3]; in experiment [4]) was “binds” throughout.

“GET4, endogenous (from UniProt Q7L5D6 1-327)”: the binding result in experiment [2] is on record as “binds”.

As to “PSMC4 (proteasomal subunit), endogenous (from UniProt P43686 1-418)”, the binding result in experiment [2] is “binds”.

Take “SGTA, endogenous (from UniProt O43765 1-313)”: in experiment [2], the binding entry is given as “binds”.

For “UBR5 (E3 ligase), endogenous (from UniProt O95071 1-2799) (enzyme)”, the binding result (in experiment [1]; in experiment [2]; with GFP-SMCR8; in experiment [3]; in experiment [4]) was “binds” in each case.
